The values that follow come from paper PMC6319010.

By UniProt entry, the sequences of proteins in these tests, tags left out.
UniProt P63104: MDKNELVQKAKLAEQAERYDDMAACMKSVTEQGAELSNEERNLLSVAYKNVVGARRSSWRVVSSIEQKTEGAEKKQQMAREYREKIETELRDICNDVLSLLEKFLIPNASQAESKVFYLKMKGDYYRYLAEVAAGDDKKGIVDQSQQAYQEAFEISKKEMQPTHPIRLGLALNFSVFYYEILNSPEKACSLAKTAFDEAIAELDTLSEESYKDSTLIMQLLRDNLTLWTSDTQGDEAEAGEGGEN
UniProt P31946: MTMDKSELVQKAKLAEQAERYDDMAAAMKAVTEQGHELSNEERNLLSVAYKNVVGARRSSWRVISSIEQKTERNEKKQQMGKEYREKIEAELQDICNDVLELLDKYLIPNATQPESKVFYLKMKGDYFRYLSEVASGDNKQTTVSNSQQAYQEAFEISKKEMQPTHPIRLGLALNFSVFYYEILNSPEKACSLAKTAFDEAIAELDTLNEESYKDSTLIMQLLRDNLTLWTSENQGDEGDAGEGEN
UniProt P62258: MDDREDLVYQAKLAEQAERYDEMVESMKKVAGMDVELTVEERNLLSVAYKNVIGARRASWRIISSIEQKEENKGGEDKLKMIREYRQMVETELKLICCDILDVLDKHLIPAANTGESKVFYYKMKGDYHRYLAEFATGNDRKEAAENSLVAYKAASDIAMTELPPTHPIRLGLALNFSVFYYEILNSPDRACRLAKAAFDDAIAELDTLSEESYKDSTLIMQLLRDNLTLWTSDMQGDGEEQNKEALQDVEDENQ

This assay deals with T1, FLAG-tagged full-length heme oxygenase-1 (HO-1) (human) (UniProt P09601).
T1 sequence: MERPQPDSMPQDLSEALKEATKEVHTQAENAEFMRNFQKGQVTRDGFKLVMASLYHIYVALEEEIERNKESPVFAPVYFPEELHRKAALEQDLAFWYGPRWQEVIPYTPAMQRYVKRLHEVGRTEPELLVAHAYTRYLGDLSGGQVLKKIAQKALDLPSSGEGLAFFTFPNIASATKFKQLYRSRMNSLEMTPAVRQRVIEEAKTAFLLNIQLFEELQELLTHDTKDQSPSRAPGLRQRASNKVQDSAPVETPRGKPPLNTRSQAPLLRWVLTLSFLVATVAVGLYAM
The experiment in a line: affinity purification with mass spectrometry; lysate of cells transfected with FLAG-HO-1 or FLAG vector on FLAG affinity gel, 4 °C 4 h; 50 mM Tris-HCl pH 7.4, 100 mM NaCl, 0.5% NP-40, 1 mM EDTA; bands of 15-40 kDa cut out, LC-MS/MS.

No constants are given. Whether binding was seen depends on the method and setting. In cells and extracts the contact can be indirect. A yes stands for co-enrichment or nearness to the bait. Other partners may have been found. Tags and fused reporters may be left off the sequences shown.

With “14–3-3ζ (endogenous) (from UniProt P63104 1-245)”, the binding entry was “binds”.

On to “14–3-3 protein beta/alpha isoform (endogenous) (from UniProt P31946 1-246)”, for which the binding entry is reported as “binds”.

“14–3-3 protein epsilon isoform (endogenous) (from UniProt P62258 1-255)”: the binding entry is recorded as “binds”.

B1: 14–3-3 protein gamma isoform (endogenous) (protein, UniProt P61981 1-247)
chain: MVDREQLVQKARLAEQAERYDDMAAAMKNVTELNEPLSNEERNLLSVAYKNVVGARRSSWRVISSIEQKTSADGNEKKIEMVRAYREKIEKELEAVCQDVLSLLDNYLIKNCSETQYESKVFYLKMKGDYYRYLAEVATGEKRATVVESSEKAYSEAHEISKEHMQPTHPIRLGLALNYSVFYYEIQNAPEQACHLAKTAFDDAIAELDTLNEDSYKDSTLIMQLLRDNLTLWTSDQQDDDGGEGNN
Turning to B1, the binding result was “binds”.
